Test results reported in PMC9436328.
Results are given in words; binding and its absence hold for the method and conditions named. For some assays here: Binding calls can cover weak binding; strength is not graded here.

Columns and labels:
[1] = target: T1, Pi04089 (Phytophthora infestans) (UniProt D0N0I9); test: two-hybrid
T1 sequence: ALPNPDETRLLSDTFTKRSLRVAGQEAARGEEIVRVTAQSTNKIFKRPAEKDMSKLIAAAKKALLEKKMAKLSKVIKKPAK

[2] = target: HaRxL44 (Hyaloperonospora arabidopsidis); test: two-hybrid

AT5G15270, RNA binding KH domain–containing protein (Arabidopsis thaliana)
binding [1]: no binding

B1: Arabidopsis mediator subunit med19a (protein, UniProt Q9FMP0 1-221)
chain: MEPERLKFGGPRELCGAADLISQFKLVQHHEFFCKKSLPVSLSDSHYLHNVVGDTEIRKGEGMQLDQLIESISQSRETNIRIQPFDIDELQESFQLNDMTPVELPPAEKGAPTIPSKSKSESKDRDRKHKKHKDRDKDKDREHKKHKHKHKDRSKDKDKDKDRDRKKDKNGHHDSGDHSKKHHDKKRKHDGDEDLNDVQRHKKNKHKSSKLDEVGAIRVAG
binding [2]: binds
